From PMC10629824

Protein sequences, listed by entry. Tags and fused reporters are not part of them. Lines headed by an entry give the natural chain unless they say otherwise; changes in a name come on top.
UniProt Q38DX5: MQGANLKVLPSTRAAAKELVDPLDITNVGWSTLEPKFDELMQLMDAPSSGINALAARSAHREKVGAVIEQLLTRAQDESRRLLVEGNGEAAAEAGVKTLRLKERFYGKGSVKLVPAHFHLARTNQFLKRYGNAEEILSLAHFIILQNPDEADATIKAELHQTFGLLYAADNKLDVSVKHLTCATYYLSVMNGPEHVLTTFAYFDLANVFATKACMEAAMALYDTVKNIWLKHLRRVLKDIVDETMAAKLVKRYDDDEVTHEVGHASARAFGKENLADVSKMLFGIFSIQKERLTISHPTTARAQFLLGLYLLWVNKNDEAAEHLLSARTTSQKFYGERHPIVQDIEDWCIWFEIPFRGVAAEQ
UniProt Q57ZB2: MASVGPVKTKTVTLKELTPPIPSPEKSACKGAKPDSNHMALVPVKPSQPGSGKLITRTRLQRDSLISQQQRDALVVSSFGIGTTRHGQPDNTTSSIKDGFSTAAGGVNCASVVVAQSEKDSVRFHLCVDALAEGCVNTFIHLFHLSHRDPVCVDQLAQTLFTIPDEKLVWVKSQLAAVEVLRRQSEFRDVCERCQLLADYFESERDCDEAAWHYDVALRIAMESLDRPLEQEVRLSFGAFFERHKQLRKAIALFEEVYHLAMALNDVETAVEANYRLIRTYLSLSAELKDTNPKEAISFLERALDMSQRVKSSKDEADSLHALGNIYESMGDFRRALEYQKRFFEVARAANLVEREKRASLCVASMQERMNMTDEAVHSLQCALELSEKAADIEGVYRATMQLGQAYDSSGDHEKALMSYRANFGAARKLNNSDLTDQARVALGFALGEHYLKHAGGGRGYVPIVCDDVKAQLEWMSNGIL
UniProt E9Q8T7: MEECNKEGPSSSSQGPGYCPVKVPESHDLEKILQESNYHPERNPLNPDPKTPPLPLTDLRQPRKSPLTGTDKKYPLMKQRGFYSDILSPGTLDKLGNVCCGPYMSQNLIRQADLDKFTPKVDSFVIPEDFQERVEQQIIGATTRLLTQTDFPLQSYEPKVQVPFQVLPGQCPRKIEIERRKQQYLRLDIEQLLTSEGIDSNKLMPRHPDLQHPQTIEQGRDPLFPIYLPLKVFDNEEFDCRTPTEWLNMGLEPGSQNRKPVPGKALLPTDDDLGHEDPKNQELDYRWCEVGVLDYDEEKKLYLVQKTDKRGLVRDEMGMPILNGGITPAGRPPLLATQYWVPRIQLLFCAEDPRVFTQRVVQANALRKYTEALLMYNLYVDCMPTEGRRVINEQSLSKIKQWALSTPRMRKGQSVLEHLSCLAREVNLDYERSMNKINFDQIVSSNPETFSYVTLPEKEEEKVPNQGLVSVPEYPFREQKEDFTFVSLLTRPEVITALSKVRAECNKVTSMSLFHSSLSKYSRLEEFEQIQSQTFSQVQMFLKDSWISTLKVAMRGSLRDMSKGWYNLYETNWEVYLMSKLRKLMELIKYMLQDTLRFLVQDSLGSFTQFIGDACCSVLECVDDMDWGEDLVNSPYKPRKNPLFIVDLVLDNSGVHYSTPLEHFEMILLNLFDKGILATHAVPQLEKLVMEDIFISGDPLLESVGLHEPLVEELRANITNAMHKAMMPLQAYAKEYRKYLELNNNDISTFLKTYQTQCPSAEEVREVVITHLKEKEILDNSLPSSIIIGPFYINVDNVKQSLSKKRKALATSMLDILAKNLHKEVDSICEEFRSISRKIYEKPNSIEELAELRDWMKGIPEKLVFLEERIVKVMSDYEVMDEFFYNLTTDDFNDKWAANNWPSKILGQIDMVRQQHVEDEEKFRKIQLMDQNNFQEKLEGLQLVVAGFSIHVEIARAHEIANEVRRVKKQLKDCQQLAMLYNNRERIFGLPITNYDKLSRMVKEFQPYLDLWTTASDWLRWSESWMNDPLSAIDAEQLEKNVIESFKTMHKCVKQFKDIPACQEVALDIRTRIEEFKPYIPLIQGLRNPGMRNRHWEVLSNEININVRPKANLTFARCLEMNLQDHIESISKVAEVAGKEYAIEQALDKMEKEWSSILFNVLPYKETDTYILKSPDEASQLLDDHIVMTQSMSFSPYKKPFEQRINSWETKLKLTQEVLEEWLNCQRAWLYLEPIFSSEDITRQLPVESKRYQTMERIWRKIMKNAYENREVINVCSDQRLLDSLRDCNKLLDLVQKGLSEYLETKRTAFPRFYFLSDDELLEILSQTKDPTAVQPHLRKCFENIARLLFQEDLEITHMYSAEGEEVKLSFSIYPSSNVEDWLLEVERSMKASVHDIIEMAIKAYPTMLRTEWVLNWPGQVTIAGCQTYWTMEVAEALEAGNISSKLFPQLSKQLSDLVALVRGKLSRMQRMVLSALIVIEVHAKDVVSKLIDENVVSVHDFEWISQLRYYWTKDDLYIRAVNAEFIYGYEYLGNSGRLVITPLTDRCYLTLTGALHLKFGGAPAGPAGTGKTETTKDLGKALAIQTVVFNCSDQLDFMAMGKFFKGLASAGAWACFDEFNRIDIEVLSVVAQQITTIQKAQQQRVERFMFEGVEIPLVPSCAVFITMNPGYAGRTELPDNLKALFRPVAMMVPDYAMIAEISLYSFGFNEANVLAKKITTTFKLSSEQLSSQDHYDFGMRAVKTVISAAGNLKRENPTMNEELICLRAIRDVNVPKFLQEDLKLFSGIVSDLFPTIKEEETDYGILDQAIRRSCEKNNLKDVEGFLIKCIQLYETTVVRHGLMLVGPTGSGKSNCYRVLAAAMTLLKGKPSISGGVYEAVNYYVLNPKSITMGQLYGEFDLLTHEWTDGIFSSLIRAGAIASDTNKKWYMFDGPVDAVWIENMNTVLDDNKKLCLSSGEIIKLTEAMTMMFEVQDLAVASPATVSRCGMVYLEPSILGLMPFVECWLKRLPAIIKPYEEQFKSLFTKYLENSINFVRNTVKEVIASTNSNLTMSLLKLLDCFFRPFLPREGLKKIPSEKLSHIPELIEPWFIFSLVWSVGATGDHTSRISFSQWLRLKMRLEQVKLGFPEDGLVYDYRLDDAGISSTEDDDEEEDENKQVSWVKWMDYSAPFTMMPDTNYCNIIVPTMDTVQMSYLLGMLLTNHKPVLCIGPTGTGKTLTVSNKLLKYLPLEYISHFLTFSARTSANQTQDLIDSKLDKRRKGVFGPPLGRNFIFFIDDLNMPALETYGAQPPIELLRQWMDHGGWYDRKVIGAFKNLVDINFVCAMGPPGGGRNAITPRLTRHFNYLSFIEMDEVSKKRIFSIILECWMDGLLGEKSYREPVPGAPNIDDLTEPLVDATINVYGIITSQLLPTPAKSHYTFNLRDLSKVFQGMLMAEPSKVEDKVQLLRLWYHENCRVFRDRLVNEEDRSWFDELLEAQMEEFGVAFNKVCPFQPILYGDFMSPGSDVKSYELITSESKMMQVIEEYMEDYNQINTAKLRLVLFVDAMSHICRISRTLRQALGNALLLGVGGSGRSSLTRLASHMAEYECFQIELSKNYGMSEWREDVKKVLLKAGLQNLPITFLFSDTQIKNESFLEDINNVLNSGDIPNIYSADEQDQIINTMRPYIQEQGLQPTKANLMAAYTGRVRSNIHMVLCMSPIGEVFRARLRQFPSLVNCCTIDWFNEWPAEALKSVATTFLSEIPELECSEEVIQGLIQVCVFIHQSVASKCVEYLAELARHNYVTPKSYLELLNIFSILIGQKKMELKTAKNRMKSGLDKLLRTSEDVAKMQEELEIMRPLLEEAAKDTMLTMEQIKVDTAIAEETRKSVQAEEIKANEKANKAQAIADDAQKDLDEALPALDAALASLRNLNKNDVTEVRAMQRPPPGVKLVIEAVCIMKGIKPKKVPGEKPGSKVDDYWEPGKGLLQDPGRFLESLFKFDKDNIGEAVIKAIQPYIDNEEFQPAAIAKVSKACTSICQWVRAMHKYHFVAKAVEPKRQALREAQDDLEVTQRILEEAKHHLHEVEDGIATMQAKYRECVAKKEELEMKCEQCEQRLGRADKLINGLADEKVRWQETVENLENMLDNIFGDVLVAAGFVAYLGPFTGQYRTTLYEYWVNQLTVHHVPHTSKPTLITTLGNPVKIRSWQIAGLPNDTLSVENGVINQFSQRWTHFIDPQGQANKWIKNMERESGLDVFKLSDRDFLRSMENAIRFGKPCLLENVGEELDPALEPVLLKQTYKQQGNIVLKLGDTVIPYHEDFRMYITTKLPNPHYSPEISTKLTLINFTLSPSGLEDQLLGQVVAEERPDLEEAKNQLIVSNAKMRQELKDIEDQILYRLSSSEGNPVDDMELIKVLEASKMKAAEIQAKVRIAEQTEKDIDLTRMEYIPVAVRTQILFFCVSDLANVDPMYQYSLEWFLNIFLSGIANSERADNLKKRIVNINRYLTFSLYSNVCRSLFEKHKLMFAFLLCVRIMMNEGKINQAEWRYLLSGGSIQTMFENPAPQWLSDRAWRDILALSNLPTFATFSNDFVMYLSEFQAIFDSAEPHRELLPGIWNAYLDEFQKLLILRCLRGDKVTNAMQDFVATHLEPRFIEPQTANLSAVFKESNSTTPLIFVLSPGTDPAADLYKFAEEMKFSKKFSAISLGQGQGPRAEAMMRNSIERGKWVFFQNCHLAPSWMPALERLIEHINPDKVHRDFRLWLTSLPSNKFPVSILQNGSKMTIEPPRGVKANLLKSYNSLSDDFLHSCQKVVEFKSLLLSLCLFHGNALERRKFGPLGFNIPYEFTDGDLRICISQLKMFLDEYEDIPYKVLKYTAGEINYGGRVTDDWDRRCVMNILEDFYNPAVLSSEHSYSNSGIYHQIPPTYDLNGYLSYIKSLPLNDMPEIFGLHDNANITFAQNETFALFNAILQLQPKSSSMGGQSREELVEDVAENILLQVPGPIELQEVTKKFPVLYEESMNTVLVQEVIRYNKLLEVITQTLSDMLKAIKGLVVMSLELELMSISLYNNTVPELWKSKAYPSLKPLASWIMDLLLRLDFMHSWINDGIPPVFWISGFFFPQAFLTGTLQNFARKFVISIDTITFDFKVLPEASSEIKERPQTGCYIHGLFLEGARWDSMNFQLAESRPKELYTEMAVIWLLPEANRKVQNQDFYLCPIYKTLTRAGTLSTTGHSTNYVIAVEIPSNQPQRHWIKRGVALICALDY
UniProt Q386C6: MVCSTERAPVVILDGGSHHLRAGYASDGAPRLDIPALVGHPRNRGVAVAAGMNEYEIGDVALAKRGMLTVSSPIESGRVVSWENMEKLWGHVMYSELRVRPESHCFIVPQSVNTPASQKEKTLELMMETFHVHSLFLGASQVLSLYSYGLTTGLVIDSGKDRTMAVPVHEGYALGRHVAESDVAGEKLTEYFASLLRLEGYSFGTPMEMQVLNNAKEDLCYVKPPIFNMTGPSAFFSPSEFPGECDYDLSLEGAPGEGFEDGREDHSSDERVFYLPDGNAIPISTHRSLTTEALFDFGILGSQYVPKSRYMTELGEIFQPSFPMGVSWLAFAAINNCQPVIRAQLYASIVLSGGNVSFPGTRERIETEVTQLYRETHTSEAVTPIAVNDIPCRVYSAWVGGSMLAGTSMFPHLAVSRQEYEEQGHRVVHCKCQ

T1: TTC29 (mouse testis) (mouse (endogenous in testis)) (UniProt Q80VM3)
T1 sequence: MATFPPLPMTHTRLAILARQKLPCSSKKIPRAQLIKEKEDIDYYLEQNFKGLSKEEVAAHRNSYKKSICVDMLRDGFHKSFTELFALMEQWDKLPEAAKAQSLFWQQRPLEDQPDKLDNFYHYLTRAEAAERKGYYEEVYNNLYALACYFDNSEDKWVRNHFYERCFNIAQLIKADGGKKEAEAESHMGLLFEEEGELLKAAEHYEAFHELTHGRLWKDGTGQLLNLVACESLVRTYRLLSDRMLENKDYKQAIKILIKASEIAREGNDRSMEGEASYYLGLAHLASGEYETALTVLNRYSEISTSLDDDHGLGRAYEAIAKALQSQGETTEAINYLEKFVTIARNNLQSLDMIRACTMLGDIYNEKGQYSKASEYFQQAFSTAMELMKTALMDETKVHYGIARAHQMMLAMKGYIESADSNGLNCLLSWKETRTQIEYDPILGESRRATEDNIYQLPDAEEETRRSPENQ


Tests used:
[1] = molecular target: T1, TTC29 (mouse testis) (mouse (endogenous in testis)); assay: affinity purification with mass spectrometry; testis lysates of WT and Ttc29-/- L5 and L7 mice (50 mM Tris-HCl pH 8, 150 mM NaCl, 10 mM MgCl2, 0.5% NP40); rabbit polyclonal TTC29 antibody, Protein A/G magnetic beads; four replicates for each genotype; MS/MS
[2] = molecular target: TbTAX-1HA (T. brucei ortholog of ZMYND12, Tb927.9.10370) (Trypanosoma brucei) (UniProt Q38DX5); assay: affinity purification with mass spectrometry; 1.8 x 10^9 T. brucei cells, IP buffer without DTT, anti-HA and anti-Ty1 IPs on Protein-G Dynabeads; nanoLC-MS/MS, label-free quantification, enrichment fold >=2
[3] = molecular target: TbTTC29Ty1 (Tb927.3.1990) (Trypanosoma brucei) (UniProt Q57ZB2); assay: as above

Molecule	binding [1]	binding [2]	binding [3]
DNAH1 (mouse testis) (from UniProt E9Q8T7 1-4250)	binds	–	–
Tb927.11.3880, a flagellar actin-like protein (from UniProt Q386C6)	–	binds	binds
DNALI1 (mouse testis) (protein, UniProt Q8BVN8 1-258) MIPPADSLLKYDTPVLVSRNTEKRSPTARPLKVTIQQPGPSSTSPQPPKAKLPSTSCVPDPTKQAEEILNAILPPREWVEDTQLWIQQVSSTPSTRMDVVHLQEQLDLKLQQRQARETGICPVRRELYSQCFDELIREVTINCAERGLLLLRVRDEIHMTIAAYQTLYESSVAFGMRKALQAEQGKSDMERKITELETEKRDLERQVNEQKAKCEATEKRESERRQVEEKKHNEEIQFLKRTNQQLKAQLEGIIAPKK	binds	–	–

No constants are given. Whether binding was seen depends on the method and setting. Binding seen in cells or lysates may run through a third protein. A yes stands for co-enrichment or nearness to the bait. Other partners may have been found.
